Data published in PMC9938007.
Results are given in words; binding and its absence hold for the method and conditions named. Binding seen in cells or lysates may run through a third protein. Some binding calls cover weakened binding; strength is not graded here. One block for each molecule: values may come before it.

Amino acid sequences for entries named in this document (tags omitted). Residues count along the entry.
UniProt P11182, residues 62-482: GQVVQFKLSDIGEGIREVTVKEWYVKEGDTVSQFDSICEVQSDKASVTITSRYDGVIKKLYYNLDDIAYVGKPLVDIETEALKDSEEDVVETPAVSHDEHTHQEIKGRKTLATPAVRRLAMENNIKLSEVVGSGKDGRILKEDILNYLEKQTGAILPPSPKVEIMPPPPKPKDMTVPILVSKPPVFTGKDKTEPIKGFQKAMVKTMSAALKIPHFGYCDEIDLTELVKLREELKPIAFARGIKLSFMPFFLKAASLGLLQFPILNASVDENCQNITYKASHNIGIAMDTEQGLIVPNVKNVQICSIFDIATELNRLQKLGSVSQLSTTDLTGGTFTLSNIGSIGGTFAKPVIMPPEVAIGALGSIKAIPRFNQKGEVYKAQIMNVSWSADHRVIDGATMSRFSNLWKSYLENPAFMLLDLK

Tests used:
[1] = target: T1, full-length AMP deaminase 3 (AMPD3), human (HEK293) (human (endogenous in HEK293)) (UniProt Q01432); assay: co-IP; anti-AMPD3 immunoprecipitation from HEK293 cells; immunoblotting
T1 sequence: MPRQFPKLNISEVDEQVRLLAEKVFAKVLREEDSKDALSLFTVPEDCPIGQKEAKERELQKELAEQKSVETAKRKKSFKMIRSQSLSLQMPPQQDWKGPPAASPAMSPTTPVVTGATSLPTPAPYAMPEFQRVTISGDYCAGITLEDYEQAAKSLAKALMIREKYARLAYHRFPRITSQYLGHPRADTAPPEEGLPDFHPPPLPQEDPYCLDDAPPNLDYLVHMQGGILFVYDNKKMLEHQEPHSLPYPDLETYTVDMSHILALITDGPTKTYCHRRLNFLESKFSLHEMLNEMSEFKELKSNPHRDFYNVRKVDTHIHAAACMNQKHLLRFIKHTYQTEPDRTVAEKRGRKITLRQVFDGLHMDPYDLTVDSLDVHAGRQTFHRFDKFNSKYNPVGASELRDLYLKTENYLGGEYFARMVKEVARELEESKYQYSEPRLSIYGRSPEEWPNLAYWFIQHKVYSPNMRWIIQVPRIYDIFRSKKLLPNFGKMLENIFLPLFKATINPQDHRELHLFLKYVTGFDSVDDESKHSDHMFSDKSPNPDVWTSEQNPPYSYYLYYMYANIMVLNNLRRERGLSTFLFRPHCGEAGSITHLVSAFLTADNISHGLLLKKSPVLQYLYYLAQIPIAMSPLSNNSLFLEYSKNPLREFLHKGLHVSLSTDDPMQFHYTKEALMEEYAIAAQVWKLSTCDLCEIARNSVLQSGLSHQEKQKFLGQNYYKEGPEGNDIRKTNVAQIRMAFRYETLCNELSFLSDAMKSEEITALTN

[2] = target: T2, full-length AMP deaminase 3 (AMPD3), rat, 90 kDa (rat (endogenous in NRCMs, H9c2 cells and rat heart)) (UniProt O09178); assay: co-IP; anti-AMPD3 immunoprecipitation of the ER and cytosolic fractions of LETO and OLETF rat hearts; immunoblotting
T2 sequence: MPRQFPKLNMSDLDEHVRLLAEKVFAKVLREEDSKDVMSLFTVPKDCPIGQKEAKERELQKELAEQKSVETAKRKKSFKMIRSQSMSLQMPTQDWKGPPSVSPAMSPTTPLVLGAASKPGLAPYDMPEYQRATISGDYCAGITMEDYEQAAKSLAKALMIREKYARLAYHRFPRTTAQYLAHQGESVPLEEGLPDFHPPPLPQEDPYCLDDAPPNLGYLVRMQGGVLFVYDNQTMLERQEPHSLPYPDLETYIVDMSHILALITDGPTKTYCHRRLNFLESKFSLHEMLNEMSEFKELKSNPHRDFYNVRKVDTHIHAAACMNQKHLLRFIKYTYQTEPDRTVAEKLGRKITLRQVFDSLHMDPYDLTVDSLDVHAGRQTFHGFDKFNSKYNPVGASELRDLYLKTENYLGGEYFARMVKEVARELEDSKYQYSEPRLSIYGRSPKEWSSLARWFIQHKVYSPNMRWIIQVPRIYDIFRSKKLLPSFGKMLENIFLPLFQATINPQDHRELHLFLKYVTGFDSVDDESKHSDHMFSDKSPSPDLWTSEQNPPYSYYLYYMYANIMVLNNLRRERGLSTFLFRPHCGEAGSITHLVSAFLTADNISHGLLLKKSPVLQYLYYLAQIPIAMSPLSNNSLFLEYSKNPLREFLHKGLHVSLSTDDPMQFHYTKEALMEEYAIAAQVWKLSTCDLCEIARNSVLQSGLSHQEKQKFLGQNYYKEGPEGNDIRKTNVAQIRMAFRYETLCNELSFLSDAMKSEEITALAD

[3] = target: T2, full-length AMP deaminase 3 (AMPD3), rat, 90 kDa (rat (endogenous in NRCMs, H9c2 cells and rat heart)); assay: co-IP; anti-AMPD3 immunoprecipitation of lysate of H9c2 cardiomyoblasts with or without E1α knocked down (siRNA); immunoblotting
[4] = target: T2, full-length AMP deaminase 3 (AMPD3), rat, 90 kDa (rat (endogenous in NRCMs, H9c2 cells and rat heart)); assay: co-IP; anti-AMPD3 immunoprecipitation of NRCM lysate (500 μg), rabbit control IgG as control; IP buffer 150 mM NaCl, 10 mM Tris-HCl pH 7.4, 1% Triton X-100, 0.5% NP-40, 4°C overnight; immunoblotting

binding [1]: binds
Molecule: E2 subunit of branched-chain α-keto acid dehydrogenase (BCKDH), human (HEK293) (from UniProt P11182 62-482)

binding [2]: binds
binding [3]: binds
binding [4]: binds
B1: E1α subunit of branched-chain α-keto acid dehydrogenase (BCKDH), rat (protein, UniProt P11960 42-441)
chain: PSLDDKPQFPGASAEFVDKLEFIQPNVISGIPIYRVMDRQGQIINPSEDPHLPQEEVLKLYRSMTLLNTMDRILYESQRQGRISFYMTNYGEEGTHVGSAAALERTDLVFGQYREAGVLMYRDYPLELFMAQCYGNVSDPGKGRQMPVHYGCKERHFVTISSPLATQIPQAVGAAYAAKRANANQIVICYFGEGAASEGDAHAGFNFAATLECPIIFFCRNNGYAISTPTSEQYRGDGIAARGPGYGIMSIRVDGNDVFAVYNATKEARRRAVAENQPFLIEAMTYRIGHHSTSDDSSAYRSVDEVNYWDKQDHPISRLRQYLLNQGWWDEEQEKAWRKQSRKKVMEAFEQAERKLKPNPSLLFSDVYQEMPAQLRRQQESLARHLQTYGEHYPLDHFDK

binding [1]: binds
B2: E1α subunit of branched-chain α-keto acid dehydrogenase (BCKDH), human (HEK293) (protein, UniProt P12694 46-445)
chain: SSLDDKPQFPGASAEFIDKLEFIQPNVISGIPIYRVMDRQGQIINPSEDPHLPKEKVLKLYKSMTLLNTMDRILYESQRQGRISFYMTNYGEEGTHVGSAAALDNTDLVFGQYREAGVLMYRDYPLELFMAQCYGNISDLGKGRQMPVHYGCKERHFVTISSPLATQIPQAVGAAYAAKRANANRVVICYFGEGAASEGDAHAGFNFAATLECPIIFFCRNNGYAISTPTSEQYRGDGIAARGPGYGIMSIRVDGNDVFAVYNATKEARRRAVAENQPFLIEAMTYRIGHHSTSDDSSAYRSVDEVNYWDKQDHPISRLRHYLLSQGWWDEEQEKAWRKQSRRKVMEAFEQAERKPKPNPNLLFSDVYQEMPAQLRKQQESLARHLQTYGEHYPLDHFDK
